Measurements taken from PubChem BioAssay AID1487 (National Center for Advancing Translational Sciences (NCATS), 2009).
The other results are listed elsewhere or left out. These are further read-outs of the screen, such as a control signal, another cell line or another target. No call is given for them. The list favours compounds with an active or inconclusive main result. The note in brackets gives the kind of curve behind each potency; many fits are weak.

Assay: qHTS Assay for Modulators of Lamin A Splicing
Details: HeLa LMNA splicing GFP/RFP minigene ratio, 48 h
How it was run: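 Read-out is the ratio of GFP to DsRed2 object intensity, acquired by 488 nm laser-scanning cytometry on HeLa lamin A-EGFP minigene reporter cells. Compound incubation 48 hrs at 37 °C in Opti-MEM with 2% FBS; DMSO 0.5% final.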

[1] = measured here: GFP splicing reporter channel
[2] = measured here: RFP viability control channel

Structure (SMILES) | AC50 [1] | AC50 [2]
CCOc1ccc(S(=O)(=O)N2c3ccccc3CC2C)cc1 (configuration not stated) | 10 µM [rising, single point] | –
O=C(NCCCCCc1nc2ccccc2[nH]1)c1ccccc1Cl | 0.631 µM [falling, partial curve, poor fit] | 3.16 µM [falling, partial curve, poor fit]
CC(C)(C)C(=O)OCOC(=O)[C@@H]1N2C(=O)[C@@H](NC(=O)[C@H](N)c3ccccc3)[C@H]2SC1(C)C | 0.251 µM [falling, full curve, poor fit] | 0.000355 µM [rising, full curve, poor fit]
COc1ccc(CCNC(=O)Cn2nc(C(=O)O)c3ccccc3c2=O)cc1OC | 35.5 µM [falling, single point] | 35.5 µM [falling, single point]
CC(=O)Nc1nonc1-c1nnc(SCc2ccccc2F)n1C | 12.6 µM [rising, single point] | –
Cc1cc(Cl)ccc1OCCCC(=O)Nc1cccnc1 | – | 15.8 µM [rising, single point]
CC(=O)c1ccc(N2CCN(c3ncnc4c3c(-c3ccccc3)cn4-c3ccc(Cl)cc3)CC2)cc1 | 15.8 µM [falling, partial curve, poor fit] | –
CN1C2CCC1/C(=C\c1ccccc1)C(=O)/C2=C\c1ccccc1 | 22.4 µM [falling, single point] | 35.5 µM [falling, single point]
CC(=O)c1ccc(OCCn2cnc3ccccc32)cc1 | 2.51 µM [rising, single point] | –
COc1ccc(CCNc2ncnc3c2cnn3-c2cc(Cl)ccc2C)cc1 | – | 35.5 µM [falling, partial curve, poor fit]
Cc1ccccc1NC(=O)CCCSc1nc2ccccc2s1 | 11.2 µM [rising, single point] | 17.8 µM [rising, single point]
Cc1ccc(NC(=O)c2cc(S(=O)(=O)NCCc3ccc(Cl)cc3)ccc2F)cc1 | 35.5 µM [falling, single point] | 35.5 µM [falling, single point]
CCN(Cc1ccccc1)S(=O)(=O)c1ccc(C(=O)Nc2nnc(-c3ccccc3OC)o2)cc1 | – | 3.98 µM [rising, single point]
S=C(Nc1ccccc1Cl)N1CCCCC1 | – | 0.141 µM [rising, full curve, poor fit]
C/C=C/c1ccc(OCCCCOc2ccccc2C(C)=O)c(OC)c1 | 3.98 µM [rising, partial curve] | 17.8 µM [rising, partial curve]
CC(C)(C)CNc1cc(N2CCOCC2)ccc1[N+](=O)[O-] | 0.631 µM [rising, full curve, poor fit] | –
Cc1cccc(NC(=O)c2ccc(C3SCC(=O)N3CCc3ccccc3)cc2)c1 (configuration not stated) | – | 12.6 µM [rising, partial curve]
C=CCn1c(Sc2ccccc2)nc2c1c(=O)[nH]c(=O)n2C | 5.62 µM [falling, single point] | 4.47 µM [falling, full curve, poor fit]
COc1ccc(NC(C)C(=O)Nc2ccc(C(C)(C)C)cc2)cc1Cl (configuration not stated) | – | 11.2 µM [rising, single point]
CCCCNC(=S)Nc1ccccc1Cc1ccccc1 | 35.5 µM [rising, partial curve, poor fit] | 11.2 µM [rising, partial curve]
CC(=O)Nc1ccc(NC(=O)C(C)c2cccc(C(=O)c3ccccc3)c2)cc1 (configuration not stated) | 12.6 µM [rising, single point] | –
CCc1nnc(NC(=O)C2CCCN(c3nc4ccccc4s3)C2)s1 (configuration not stated) | – | 20 µM [rising, single point]
CCC(C)c1ccc(NC(=O)C2CCN(c3ncccn3)CC2)cc1 (configuration not stated) | 12.6 µM [rising, single point] | 17.8 µM [rising, single point]
COCC(=O)n1nc(-c2ccccc2)nc1NCc1ccc(F)cc1 | – | 11.2 µM [rising, partial curve, poor fit]
Cc1nn(CC(=O)OCCOc2ccc(Br)cc2)c(C)c1[N+](=O)[O-] | 0.01 µM [rising, full curve, poor fit] | –
Cc1ccc(CN2CCN(/N=C/c3sccc3C)CC2)c(C)c1 | 31.6 µM [rising, single point] | 31.6 µM [rising, single point]

Three structures out of the list, arranged by count of non-hydrogen atoms, descending:
Structure (SMILES) | AC50 [1] | AC50 [2]
Cc1ccc(NC(=O)c2cc(S(=O)(=O)NCCc3ccc(Cl)cc3)ccc2F)cc1 | 35.5 µM [falling, single point] | 35.5 µM [falling, single point]
CC(=O)Nc1nonc1-c1nnc(SCc2ccccc2F)n1C | 12.6 µM [rising, single point] | –
CCCCNC(=S)Nc1ccccc1Cc1ccccc1 | 35.5 µM [rising, partial curve, poor fit] | 11.2 µM [rising, partial curve]
